Data on 1 substance can be found in paper PMC10861631.

Amino acid sequences for entries named in this document (tags omitted).
UniProt P11275: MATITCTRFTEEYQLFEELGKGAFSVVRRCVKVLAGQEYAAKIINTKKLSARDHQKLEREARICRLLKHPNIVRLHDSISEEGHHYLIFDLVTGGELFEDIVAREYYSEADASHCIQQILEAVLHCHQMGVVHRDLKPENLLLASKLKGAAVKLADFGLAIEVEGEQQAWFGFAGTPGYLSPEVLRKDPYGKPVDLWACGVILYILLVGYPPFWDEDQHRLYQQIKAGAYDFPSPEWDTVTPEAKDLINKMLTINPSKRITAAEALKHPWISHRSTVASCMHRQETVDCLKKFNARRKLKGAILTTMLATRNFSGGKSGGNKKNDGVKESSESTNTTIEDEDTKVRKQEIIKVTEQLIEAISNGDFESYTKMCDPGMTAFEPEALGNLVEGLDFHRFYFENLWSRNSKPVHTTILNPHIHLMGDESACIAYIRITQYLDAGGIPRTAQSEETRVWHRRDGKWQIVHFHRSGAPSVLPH

This assay addresses T1, mRFP-tagged Shank1 N-terminus (SPN + Ank domains, residues 72-555) (human) (UniProt Q9Y566).
T1 sequence: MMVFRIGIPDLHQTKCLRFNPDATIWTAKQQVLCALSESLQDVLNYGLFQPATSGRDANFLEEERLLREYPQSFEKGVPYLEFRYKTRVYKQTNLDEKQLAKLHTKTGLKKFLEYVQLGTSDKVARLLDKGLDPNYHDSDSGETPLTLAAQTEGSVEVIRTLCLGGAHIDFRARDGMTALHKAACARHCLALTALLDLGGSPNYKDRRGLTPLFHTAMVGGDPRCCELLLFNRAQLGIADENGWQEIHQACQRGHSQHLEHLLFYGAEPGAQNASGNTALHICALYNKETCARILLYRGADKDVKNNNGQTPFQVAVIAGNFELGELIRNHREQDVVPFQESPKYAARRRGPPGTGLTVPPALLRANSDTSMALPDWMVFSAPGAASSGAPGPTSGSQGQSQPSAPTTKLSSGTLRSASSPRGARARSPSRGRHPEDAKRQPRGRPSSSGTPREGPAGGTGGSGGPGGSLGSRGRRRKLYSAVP
Nature of the assay: co-IP; mRFP-tagged Shank N-termini coexpressed in 293T cells with T7-αCaMKII and/or HA-tagged G12V G-proteins; precipitated with RFP-trap beads, 2 h at 4 °C; IP buffer 50 mM Tris-HCl pH 8, 120 mM NaCl, 0.5% NP40, 1 mM EDTA; Western blot. (In general: Immunoblotting shows a protein as a band on a membrane.)

These are yes or no findings as the source states them, for the method shown. In cells and extracts the contact can be indirect. Some entries that bind do so weakly or less than the wild type. Where a sequence is shown, tags or fusion partners need not be part of it.

With “T7-tagged αCaMKII (α-subunit of the calcium-/calmodulin dependent kinase II) (from UniProt P11275 1-478) (enzyme)”, the binding entry is “binds”.
